These are yes or no findings as the source states them, for the method shown. Binding seen in cells or lysates may run through a third protein. Some binding calls cover weakened binding; strength is not graded here.

The target of the test is T1, Mdm2 (zebrafish (endogenous in zebrafish embryos)) (UniProt O42354).
T1 sequence: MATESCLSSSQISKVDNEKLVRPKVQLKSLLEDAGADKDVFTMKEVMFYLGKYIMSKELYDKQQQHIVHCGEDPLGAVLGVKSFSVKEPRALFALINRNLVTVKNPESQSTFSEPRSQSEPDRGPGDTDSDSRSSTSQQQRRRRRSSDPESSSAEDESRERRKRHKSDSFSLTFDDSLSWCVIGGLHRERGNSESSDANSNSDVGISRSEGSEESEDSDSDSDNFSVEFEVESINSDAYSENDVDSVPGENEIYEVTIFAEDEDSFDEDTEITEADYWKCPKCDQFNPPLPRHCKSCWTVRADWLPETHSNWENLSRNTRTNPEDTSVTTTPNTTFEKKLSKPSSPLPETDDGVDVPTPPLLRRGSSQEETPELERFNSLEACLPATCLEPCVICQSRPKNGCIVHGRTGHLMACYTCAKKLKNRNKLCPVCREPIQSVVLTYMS
Description: co-IP; lysates of 28 hpf control and ncl-/- zebrafish embryos (n=25 per replicate), antibody or IgG pre-conjugated to magnetic beads, immunoblot for Mdm2 and p53; results say IP for Mdm2, methods name the p53 antibody.

B1: p53 protein (protein, UniProt P79734 1-373)
chain: MAQNDSQEFAELWEKNLIIQPPGGGSCWDIINDEEYLPGSFDPNFFENVLEEQPQPSTLPPTSTVPETSDYPGDHGFRLRFPQSGTAKSVTCTYSPDLNKLFCQLAKTCPVQMVVDVAPPQGSVVRATAIYKKSEHVAEVVRRCPHHERTPDGDNLAPAGHLIRVEGNQRANYREDNITLRHSVFVPYEAPQLGAEWTTVLLNYMCNSSCMGGMNRRPILTIITLETQEGQLLGRRSFEVRVCACPGRDRKTEESNFKKDQETKTMAKTTTGTKRSLVKESSSATLRPEGSKKAKGSSSDEEIFTLQVRGRERYEILKKLNDSLELSDVVPASDAEKYRQKFMTKNKKENRESSEPKQGKKLMVKDEGRSDSD
On to B1, for which the binding result was “binds”.
